# Reference: the supplement of paper PMC3334620
# Whole data set: some 33,000 sequences, median “E-score (-0.5 to 0.5)” near -8e-05, cut for the highest 2% near 0.23. The list shows a part of the results.
# Biological target: T1, Nrg2 (UniProt P38082)
# T1 sequence: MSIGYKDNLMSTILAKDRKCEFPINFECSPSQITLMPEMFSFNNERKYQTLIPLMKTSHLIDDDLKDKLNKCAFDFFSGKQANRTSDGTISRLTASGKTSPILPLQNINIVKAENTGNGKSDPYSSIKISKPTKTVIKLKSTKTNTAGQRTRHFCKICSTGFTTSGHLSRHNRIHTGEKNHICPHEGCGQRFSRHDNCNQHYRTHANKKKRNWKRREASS
# Test: PBM E-score (8-mer binding enrichment) (E-score (-0.5 to 0.5)); higher = stronger / more preferred TF binding
# Details: protein concentration: 100 nM; construct: GST-full length
# Outline: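 Yeast transcription factors carrying a GST tag, as full-length proteins or DNA-binding domains, were produced by PURExpress in vitro transcription/translation. About 100-200 nM protein was applied to universal all-10-mer Agilent arrays, double-stranded by primer extension on fresh or once-stripped slides. Bound protein was detected with fluorescent anti-GST, and scans were normalised with masliner. The Universal PBM Analysis Suite gave each ungapped eight-base word, pooled with its reverse complement, an E-score, a modified Wilcoxon-Mann-Whitney statistic.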
row,Sequence,PBM E-score
1,CTCGACGA,-0.0937
2,CCTGCTCG,-0.134
3,ATGCGGCA,0.0983
4,ACGTATAG,-0.0219
5,GACTAAAA,0.0739
6,AACTTACC,-0.067
7,CTAACAAC,0.0923
8,GTTTCCAA,-0.156
9,ATAGGATA,-0.0583
10,ATGCGCAG,0.0374
11,GGGTCAAA,0.106
12,AGTCCCTA,0.0553
13,CGGGGCGC,-0.113
14,ACGGCGGG,0.0668
15,GGAGCAAA,0.0118
16,TTCAGAAA,-0.0353
17,CAAGCCTC,-0.202
18,CCAAACCC,0.0949
19,ATGTAATG,0.115
20,AACAGGCC,-0.202
21,AAGTTTCG,-0.0277
22,AAGTGATA,-0.0985
23,TAATTGGA,0.069
24,ACCTCAAT,-9e-05
25,CGATCAGA,-0.245

row,Sequence,PBM E-score
1,CGAATATA,0.0742
2,AGTACTTG,0.0357
3,GCCGATAA,-0.0861
4,CTCCAGGA,-0.321
5,CGGGCACA,-0.184
6,AACATGTT,0.0039
7,CACGGAGA,0.0874
8,TAAAATCA,0.0206
9,CGACCGCC,-0.0751
10,CCTTACCC,0.0689
11,AATACCCT,0.155
12,CATACGAG,-0.142
13,CTTCTATA,-0.0869
14,GCGCAGGA,-0.0662
15,GGGTTCTA,0.0437
16,AAAGCTTG,0.00751
17,AGTGAGGA,-0.162
18,AAAAGCCC,-0.0279
19,CCCGCACA,0.0668
20,AAGGTTGT,0.0705
21,TTAACTAA,0.249
22,TCCCCACA,-0.193
23,GCAAAGTA,0.14
24,AACCTGGG,-0.131
25,AAATTCTA,-0.154

# A stretch taken from the entries so far:
row,Sequence,PBM E-score
14,GCGCAGGA,-0.0662
15,GGGTTCTA,0.0437
16,AAAGCTTG,0.00751
17,AGTGAGGA,-0.162
18,AAAAGCCC,-0.0279
19,CCCGCACA,0.0668
20,AAGGTTGT,0.0705

# Going on with the list.

row,Sequence,PBM E-score
1,CCGGTATA,0.0762
2,ACGGATCA,-0.0271
3,AGTCAATA,-0.0505
4,AGCGGCGA,0.043
5,GCTTTGCC,-0.251
6,GCTTCCAA,-0.0524
7,AACTTCGT,-0.0105
8,CCCACCCG,0.231
9,ACCCAATG,-0.127
10,ACGGCATC,-0.168
11,ATGTACTC,-0.0872
12,GTTTTTGA,0.203
13,GTTGTGCA,-0.0974
14,CCGGTGGC,-0.237
15,AAGACGGT,-0.161
16,AGCCTCAA,-0.112
17,GCCTTCTA,-0.0848
18,ACCTTATC,-0.0402
19,ACACCTGA,-0.0119
20,ACAGGCAG,0.0296
21,AAGGAATC,-0.137
22,GTTAGCGA,-0.131
23,ATGCTTCC,-0.108
24,ATTACCCG,0.0956
25,CTCCGCTC,-0.156

row,Sequence,PBM E-score
1,ACACGGCA,-0.0844
2,TCAGCTCA,0.0651
3,CTGTTCAC,0.0743
4,CATCAATG,0.0811
5,CACTGACA,0.0481
6,AAAGTCTG,-0.0463
7,CTCCGGTA,-0.0857
8,GCCGAGGC,0.177
9,ATTTGGGC,-0.0166
10,GGTTAAAC,-0.104
11,CGTAGTTC,-0.0931
12,GCAAACCA,0.0737
13,ATCGCTTC,-0.0538
14,CTTAAGGC,-0.0614
15,AGCGAGAT,0.18
16,CGAGCACG,0.0279
17,ACCCCGGT,-0.174
18,ATCCTAGG,-0.0272
19,CCTACAGA,-0.0971
20,AATGGGGT,0.133
21,CTGGAGCC,-0.248
22,AGGCTCCC,-0.279
23,CAGATCTC,-0.0544
24,ATTTAGGC,0.0621
25,ACCAAAAA,0.22

row,Sequence,PBM E-score
1,AGCACACC,-0.197
2,AACCAAAC,-0.142
3,GAGTGAAA,-0.0743
4,GACGTCTC,-0.0301
5,ATCGTGCC,-0.145
6,ATCTAGGG,0.108
7,TCCAACCA,-0.0134
8,CTGAGCAA,-0.0589
9,CCTTGCAC,0.116
10,ATTGCCAC,0.0443
11,AGCGATTA,-0.0337
12,GAGCGTAC,-0.157
13,GAACGTTC,-0.0394
14,AGCCGAAG,-0.104
15,CCGTGGCC,-0.277
16,CAGGACCA,-0.0167
17,ATCCATGA,-0.14
18,CTGAAAAG,0.095
19,ATGCGCAA,0.182
20,ATTATCCC,0.168
21,ACCAGCTA,0.114
22,ACTGCCCA,0.05
23,CGTGAAAG,-0.0377
24,CCATAGGG,0.00266
25,CTAAGTGC,-0.00554

row,Sequence,PBM E-score
1,CGTCATTC,0.2
2,TGCAAGCA,0.0247
3,AGTCGTCG,-0.142
4,AGATGATC,0.164
5,GTCTGCGA,-0.0083
6,CATGCCTC,-0.109
7,AGCCTTCG,-0.23
8,CATGCTCA,0.0109
9,CTAGCGGC,-0.34
10,CAGGCAGA,-0.084
11,GTAGCTAA,0.0457
12,AGAGGGTG,-0.13
13,AACTGGTC,-0.0552
14,AGTAGGCC,0.0655
15,GCCGCGTA,-0.176
16,CGAGGATA,0.132
17,AAGCCTAT,-0.0255
18,GAAGCGAC,0.0489
19,ATCGTGGA,0.0974
20,GCCTCAAA,0.00933
21,AACCAAGG,0.113
22,AAAGGCGT,-0.195
23,CTATGCCA,0.0832
24,GCTAAACA,0.124
25,CTGCAGGC,-0.222

row,Sequence,PBM E-score
1,CAACCACG,-0.0473
2,GGTTATAA,-0.0307
3,AACACACG,-0.1
4,AACGTTGA,-0.0301
5,CATACACC,-0.0934
6,TATGTTCA,0.0853
7,AGGCTGCC,-0.25
8,TGCACCAA,-0.0972
9,CAAGGGTA,0.15
10,ATTGCCTC,0.14
11,CGATTGTA,0.184
12,CGGGCGTC,-0.0115
13,CTCGATTA,0.251
14,GAAAACTA,0.107
15,ATATGGCC,-0.0218
16,AGCTAAAT,-0.0748
17,CGGAGAGC,-0.196
18,ACGTGGCT,-0.0848
19,GGAAACAC,-0.0852
20,AGAGTTGC,0.129
21,GCAAGGCA,0.0374
22,GTCCGCCA,-0.0221
